Assay: general procedure: Boc solid-phase peptide synthesis; BOC-Phe esterified to 2% cross-linked polystyrene-divinylbenzene; DCCI with 1-hydroxybenzotriazole
Conditions: cyclisation step

Substance: BOC-Hcys-Pro-Phe-Hcys-Sta-Leu-Phe-OCH3
- final HPLC purity: 98.2%
